Data set [1] in a line: general procedure: Fmoc solid-phase peptide synthesis; Fmoc-PAL-PEG-PS resin (0.18 mmol/g); HATU/DIEA (manual couplings). The note with it: for conjugation yield: conjugation step; for isolated mass / isolated yield: whole synthesis.
A short description of data set [2]: general procedure: Fmoc solid-phase peptide synthesis; TGR; HATU/DIEA (manual couplings). Particulars: whole synthesis, scale 130 μmol.
Data set [3] in a line: general procedure: Fmoc solid-phase peptide synthesis; Fmoc-Pal-Peg-PS resin; HATU/DIEA (manual couplings). The note with it: whole synthesis, scale 0.2 mmol.
The nature of data set [4]: general procedure: Fmoc solid-phase peptide synthesis; Fmoc-PAL-PEG-PS; HATU/DIEA (manual couplings). Particulars: whole synthesis, scale 0.25 mmol.
The mark [5] stands for this setting: scale of the general procedure 0.25 mmol.

“Ac-RWQPC*PAESWT-Cha-C*WDPGGGK(DSPE-PG4-Glut)-NH2” returned a step yield in data set [1] (lipidation step) of 34%.

“Ac-WQPC*PAESWTFC*WDPGGGK(NH2-PG2-JJ)-NH2” registered a conjugation yield in data set [1] of 47%.

RWQPC*PAESWTFC*WDPGGGK(CF5)-NH2: the step yield in data set [1] (late stage modification step) is given as 60.4%.

Turning to Ac-WQPC*PAESWTFC*WDPGGGK(JJ)-NH2, in data set [2], the isolated mass was 42 mg and the isolated yield is listed as 13%.

In turn, Aloe-RWQPC*PAESWTFC*WDPGGGK(CF5)-NH2 had a conjugation yield in data set [1] of 62.8%.

For “Ac-GWQPC*PWESWTFC*WDPGGGK(DSPE-PG4-Glut)-NH2 (GWQPCPWESWTFCWDPGGGK; N-acetyl, C-amide, DSPE-PG4-Glut lipid, cyclic 5-13)”, the step yield in data set [1] (lipidation step) amounted to 30%.

In data set [1] (lipidation step, based on the input DSPE-PG4-NH2), “RWQPC*PWESWTFC*WDPGGGK(DSPE-PG4-Glut)-NH2 (RWQPCPWESWTFCWDPGGGK; C-amide, DSPE-PG4-Glut lipid, cyclic 5-13)” gave a step yield of 29%.

Turning to “Ac-SGSGSGSGWQPC*PWESWTFC*WDPGGGK(DSPE-PG4-Glut)-NH2 (SGSGSGSGWQPCPWESWTFCWDPGGGK; N-acetyl, C-amide, DSPE-PG4-Glut lipid, cyclic 12-20)”, the step yield in data set [1] (lipidation step) came to 60%. Further, the “final HPLC purity” value in data set [1] (lipidation step, analytical HPLC, UV 220 nm (and ELSD for lipopeptides)) was >98%.

In data set [1] (lipidation step), “Ac-WQPC*PWESWTFC*WDPGGGK(DPPE-PG4-Glut)-NH2 (WQPCPWESWTFCWDPGGGK; cyclised or stapled)” registered a step yield of 52%. In data set [1] (lipidation step, UV @ 220 nm & ELSD), the “final HPLC purity” value was >98% (area %).

In data set [3], Ac-WQPCPAESWTFCWDPGSAGSK(Dga-Ttda)-NH2 showed an isolated mass of 175 mg and an isolated yield of 16.2% yield.

As for Aloc-RWQPC*PWESWTFC*WDPGGGK-NH2, in data set [1] (scale 0.54 mmol), the isolated mass stood at 290 mg and the isolated yield amounted to 21%.

As to “RWQPC*PAESWT-Cha-C*WDPGGGK(DSPE-PG4-Glut)-NH2”, in data set [1] (lipidation step), the difficulty met result was “HPLC analysis of the isolated product indicated the need for additional purification” and the step yield was 4.5%.

As for “Ac-WQPC*PAESWTFC*WDPGGGK(DSPE-PG4-Glut)-NH2 (WQPCPAESWTFCWDPGGGK; N-acetyl, C-amide, DSPE-PG4-Glut lipid, cyclic 4-12)”, the step yield in data set [1] (lipidation step) is listed as 44%.

In data set [4], Ac-GWQPC*PWESWTFC*WDPGGGK-NH2 returned an isolated mass of 105 mg and an isolated yield of 17.8%.

“Ac-WQPCPAESWTFCWDPGSAGSK(DPPE-Pro9-Glut-Ttda-Dga)-NH2 Cyclic (4→12) Peptide (N-acetyl, C-amide, DPPE-Pro9-Glut-Ttda-Dga lipid, cyclic)” yielded a step yield in data set [1] (lipidation step) of 32.8% yield.

As to “Ac-WQPCPAESWTFCWDPGAGSGK(DPPE-Pro9-Glut-Ttda-Dga)-NH2Cyclic (4→12) Peptide (N-acetyl, C-amide, DPPE-Pro9-Glut-Ttda-Dga lipid, cyclic)”, in data set [1] (lipidation step), the step yield is listed as 46.5% yield.

For the substance “Ac-WQPC*PAESWTFC*WDPGGGK(DPPE-PG4-Glut)-NH2”, in data set [1] (lipidation step), the step yield is 48%.

Consider Ac-SGSGJWQPC*PWESWTFC*WDPGGGK-NH2, for which, in data set [1] (scale 0.266 mmol), the isolated mass was found to be 130 mg and the isolated yield turned out to be 18.8%.

In data set [1], Ac-RWQPC*PAESWT-Cha-C*WDPGGGK-NH2 came in with an isolated mass of 140 mg. Also, the isolated yield in data set [1] (setting [5]) is reported as 27.5%.

The substance Aloc-RWQPC*PAESWT-Cha-C*WDPGGGK-NH2 had an isolated mass in data set [1] of 230 mg. For the same substance, the isolated yield in data set [1] (setting [5]) stood at 26.7%.

For the substance “Ac-SGSGJWQPC*PWESWTFC*WDPGGGK(DSPE-PG4-Glut)-NH2”, the step yield in data set [1] (lipidation step) stood at 25.7%.

Values taken from patent US8466107B2 (Bracco Imaging SpA, priority 2006, dated 2013).
